The values below come from paper PMC7526919.

Amino acid sequences for entries named in this document (tags omitted).
UniProt O00401: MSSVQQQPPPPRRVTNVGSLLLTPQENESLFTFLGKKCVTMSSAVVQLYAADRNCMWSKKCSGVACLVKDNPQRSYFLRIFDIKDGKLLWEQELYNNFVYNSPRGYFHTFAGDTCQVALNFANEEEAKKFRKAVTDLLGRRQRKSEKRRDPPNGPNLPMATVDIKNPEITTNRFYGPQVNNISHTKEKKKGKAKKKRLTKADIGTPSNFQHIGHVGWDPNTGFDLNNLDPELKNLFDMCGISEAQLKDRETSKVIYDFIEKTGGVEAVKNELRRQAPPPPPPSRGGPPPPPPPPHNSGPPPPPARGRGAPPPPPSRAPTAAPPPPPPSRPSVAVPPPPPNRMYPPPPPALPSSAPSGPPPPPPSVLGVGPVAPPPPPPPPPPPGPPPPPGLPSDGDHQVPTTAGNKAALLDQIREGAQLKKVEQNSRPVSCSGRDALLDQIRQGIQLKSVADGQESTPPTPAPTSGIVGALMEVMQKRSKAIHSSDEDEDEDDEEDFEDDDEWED
UniProt O84702: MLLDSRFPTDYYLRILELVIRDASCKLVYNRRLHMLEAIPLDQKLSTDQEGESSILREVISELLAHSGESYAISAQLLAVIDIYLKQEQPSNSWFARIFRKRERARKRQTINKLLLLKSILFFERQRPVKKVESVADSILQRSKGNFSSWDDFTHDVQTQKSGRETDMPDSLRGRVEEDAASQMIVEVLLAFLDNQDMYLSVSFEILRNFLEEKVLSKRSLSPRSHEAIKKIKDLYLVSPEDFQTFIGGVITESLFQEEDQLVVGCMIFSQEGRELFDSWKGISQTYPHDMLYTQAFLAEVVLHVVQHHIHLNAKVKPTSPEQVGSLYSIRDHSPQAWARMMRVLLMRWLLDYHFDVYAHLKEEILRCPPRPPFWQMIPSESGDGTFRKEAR

The assay has as its target flag-tagged N-WASP (UniProt O00401). The experiment in a line: co-IP; HeLa cells co-transfected with flag-tagged N-WASP or N-WASPΔGBD and a GFP-tagged effector; lysis in 50mM Tris HCl pH7.4, 150mM NaCl, 1mM EDTA, 1% Triton-X 100; flag-tagged N-WASP immunoprecipitated with M2 affinity resin; blots with anti-flag or anti-GFP.

Results are given in words; binding and its absence hold for the method and conditions named. Binding seen in cells or lysates may run through a third protein.

For “GFP-tagged CT696 (from UniProt O84702 1-392)”, the binding result is “no binding”.
